# Test results published in article PMC9863651, “Anti-Glioma Activity Achieved by Dual Blood–Brain Barrier/Glioma Targeting Naive Chimeric Peptides-Based Co-Assembled Nanophototheranostics” (Pharmaceutics, 2023).
# Assay: NIR-808 laser induced temperature rise (photothermal effect)
# Type: physicochemical
structure (smiles),measurement,setting,value
"CC1(C)C(/C=C/C=C/C=C/C=C2\N(CCCCS(=O)(=O)O)c3ccc4ccccc4c3C2(C)C)=[N+](CCCCS(=O)(=O)[O-])c2ccc3ccccc3c21 [ICG, indocyanine green]",temperature after 10 min of laser irradiation,ICG concentration of 27 μg/mL,46 °C
same,"temperature elevation, on/off cycle 1","first of three successive on/off cycles, similar ICG concentrations",22 °C
same,"temperature elevation, on/off cycle 2","second of three successive on/off cycles, similar ICG concentrations",12 °C
same,"temperature elevation, on/off cycle 3","third of three successive on/off cycles, similar ICG concentrations",4 °C
